In the supplement of paper PMC10849652:
Some of the results follow.

Chains of the proteins cited; added tags and fusions are not shown. Lines headed by an entry give the natural chain unless they say otherwise; changes in a name come on top.
UniProt Q13733, whole entry, looked up: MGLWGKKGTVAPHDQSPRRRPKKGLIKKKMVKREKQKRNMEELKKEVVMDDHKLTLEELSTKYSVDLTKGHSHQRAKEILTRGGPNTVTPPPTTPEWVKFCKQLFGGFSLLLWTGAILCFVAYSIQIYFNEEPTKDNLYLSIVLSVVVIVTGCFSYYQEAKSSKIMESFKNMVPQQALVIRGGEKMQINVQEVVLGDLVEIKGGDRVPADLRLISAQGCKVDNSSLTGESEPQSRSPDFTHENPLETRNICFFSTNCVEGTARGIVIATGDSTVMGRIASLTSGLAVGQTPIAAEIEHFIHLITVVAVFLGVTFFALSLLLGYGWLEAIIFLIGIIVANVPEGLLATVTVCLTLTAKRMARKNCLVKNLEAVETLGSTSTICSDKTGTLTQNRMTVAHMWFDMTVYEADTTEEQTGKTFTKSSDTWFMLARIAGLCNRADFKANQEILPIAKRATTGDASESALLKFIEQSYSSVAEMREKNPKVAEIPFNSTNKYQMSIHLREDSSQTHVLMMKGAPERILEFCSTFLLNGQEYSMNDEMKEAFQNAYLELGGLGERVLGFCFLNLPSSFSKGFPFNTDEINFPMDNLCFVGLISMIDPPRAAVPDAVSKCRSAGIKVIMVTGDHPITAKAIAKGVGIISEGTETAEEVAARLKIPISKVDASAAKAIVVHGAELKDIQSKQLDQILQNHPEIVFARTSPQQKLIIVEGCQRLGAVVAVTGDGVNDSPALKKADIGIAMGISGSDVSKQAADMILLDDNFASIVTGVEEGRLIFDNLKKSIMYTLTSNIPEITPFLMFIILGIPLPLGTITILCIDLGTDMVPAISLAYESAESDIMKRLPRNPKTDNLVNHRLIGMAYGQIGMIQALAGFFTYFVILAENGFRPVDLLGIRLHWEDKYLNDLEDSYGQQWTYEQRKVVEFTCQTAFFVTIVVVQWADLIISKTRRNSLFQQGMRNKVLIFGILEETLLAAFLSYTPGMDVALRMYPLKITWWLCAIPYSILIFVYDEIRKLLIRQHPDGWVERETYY
UniProt Q9BZE9, whole entry, looked up: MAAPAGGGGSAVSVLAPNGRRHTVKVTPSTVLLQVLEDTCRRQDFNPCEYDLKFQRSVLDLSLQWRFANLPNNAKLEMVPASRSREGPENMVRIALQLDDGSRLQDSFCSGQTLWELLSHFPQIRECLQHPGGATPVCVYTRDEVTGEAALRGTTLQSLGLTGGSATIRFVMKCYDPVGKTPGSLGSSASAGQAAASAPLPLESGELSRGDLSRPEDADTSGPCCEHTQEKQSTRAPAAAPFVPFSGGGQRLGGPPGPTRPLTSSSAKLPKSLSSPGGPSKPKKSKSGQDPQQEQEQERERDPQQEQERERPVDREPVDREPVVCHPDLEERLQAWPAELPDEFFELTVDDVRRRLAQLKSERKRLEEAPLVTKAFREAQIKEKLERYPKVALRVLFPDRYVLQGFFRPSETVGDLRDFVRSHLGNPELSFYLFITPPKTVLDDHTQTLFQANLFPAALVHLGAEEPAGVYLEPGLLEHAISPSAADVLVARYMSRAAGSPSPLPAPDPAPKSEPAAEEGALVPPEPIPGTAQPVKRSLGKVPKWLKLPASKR
UniProt Q9Y487, whole entry, looked up: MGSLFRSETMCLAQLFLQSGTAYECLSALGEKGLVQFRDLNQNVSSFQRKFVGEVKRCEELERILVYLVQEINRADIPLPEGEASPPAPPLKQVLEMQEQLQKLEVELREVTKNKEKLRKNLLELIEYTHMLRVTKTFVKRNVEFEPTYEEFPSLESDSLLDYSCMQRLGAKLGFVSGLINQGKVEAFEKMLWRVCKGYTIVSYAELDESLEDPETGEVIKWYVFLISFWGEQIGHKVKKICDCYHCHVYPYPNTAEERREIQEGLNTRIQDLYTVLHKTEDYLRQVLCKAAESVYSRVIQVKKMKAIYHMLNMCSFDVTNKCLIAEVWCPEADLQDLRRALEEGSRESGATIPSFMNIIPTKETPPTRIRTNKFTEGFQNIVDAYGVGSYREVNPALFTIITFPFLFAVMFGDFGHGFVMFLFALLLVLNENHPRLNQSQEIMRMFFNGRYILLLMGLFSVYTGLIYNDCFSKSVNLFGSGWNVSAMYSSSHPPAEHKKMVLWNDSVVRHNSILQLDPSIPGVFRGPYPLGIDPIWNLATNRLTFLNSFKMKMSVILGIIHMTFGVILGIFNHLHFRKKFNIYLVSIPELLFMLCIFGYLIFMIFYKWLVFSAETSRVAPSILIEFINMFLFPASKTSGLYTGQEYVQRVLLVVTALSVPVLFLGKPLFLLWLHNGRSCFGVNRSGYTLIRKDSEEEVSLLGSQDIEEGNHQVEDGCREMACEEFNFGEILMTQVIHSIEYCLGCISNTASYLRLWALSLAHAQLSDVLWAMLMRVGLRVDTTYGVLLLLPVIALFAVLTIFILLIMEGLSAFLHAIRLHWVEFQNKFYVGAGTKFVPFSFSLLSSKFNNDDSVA
UniProt P15289: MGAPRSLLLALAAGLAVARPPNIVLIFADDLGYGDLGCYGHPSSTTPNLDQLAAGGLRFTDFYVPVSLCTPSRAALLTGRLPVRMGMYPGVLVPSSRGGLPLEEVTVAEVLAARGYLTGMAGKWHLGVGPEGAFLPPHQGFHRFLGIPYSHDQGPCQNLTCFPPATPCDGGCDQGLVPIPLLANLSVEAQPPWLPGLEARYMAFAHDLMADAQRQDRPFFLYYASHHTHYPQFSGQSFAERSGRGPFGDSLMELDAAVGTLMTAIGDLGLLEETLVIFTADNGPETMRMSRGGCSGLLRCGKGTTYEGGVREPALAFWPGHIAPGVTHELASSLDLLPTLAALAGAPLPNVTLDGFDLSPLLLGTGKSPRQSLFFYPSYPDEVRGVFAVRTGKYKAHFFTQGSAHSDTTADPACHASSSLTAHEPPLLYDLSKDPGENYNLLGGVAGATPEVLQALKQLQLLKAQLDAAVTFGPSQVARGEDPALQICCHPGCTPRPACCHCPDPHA
UniProt Q8N5M1: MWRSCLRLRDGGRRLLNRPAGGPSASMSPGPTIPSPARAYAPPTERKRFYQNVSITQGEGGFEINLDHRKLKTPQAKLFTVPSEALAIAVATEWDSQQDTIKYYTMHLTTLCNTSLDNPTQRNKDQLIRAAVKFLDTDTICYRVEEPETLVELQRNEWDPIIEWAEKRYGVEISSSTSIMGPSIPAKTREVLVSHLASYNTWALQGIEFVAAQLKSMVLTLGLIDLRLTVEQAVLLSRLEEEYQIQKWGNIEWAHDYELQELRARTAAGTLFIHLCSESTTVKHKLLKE
UniProt P00966: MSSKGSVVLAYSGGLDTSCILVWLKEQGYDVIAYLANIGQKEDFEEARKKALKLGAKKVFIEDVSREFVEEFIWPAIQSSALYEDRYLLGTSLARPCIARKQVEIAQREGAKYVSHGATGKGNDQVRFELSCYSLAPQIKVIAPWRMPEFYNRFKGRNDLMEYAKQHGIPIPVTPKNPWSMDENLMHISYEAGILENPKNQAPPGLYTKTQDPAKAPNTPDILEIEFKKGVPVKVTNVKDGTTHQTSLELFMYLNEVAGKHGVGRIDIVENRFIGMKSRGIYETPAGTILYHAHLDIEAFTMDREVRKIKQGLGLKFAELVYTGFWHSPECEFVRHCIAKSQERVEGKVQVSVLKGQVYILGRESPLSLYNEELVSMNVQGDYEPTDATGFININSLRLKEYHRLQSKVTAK
UniProt O75348, whole entry, looked up: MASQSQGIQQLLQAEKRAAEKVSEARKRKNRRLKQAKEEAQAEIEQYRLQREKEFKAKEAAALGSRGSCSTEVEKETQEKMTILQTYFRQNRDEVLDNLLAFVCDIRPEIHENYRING
UniProt Q8N2F6: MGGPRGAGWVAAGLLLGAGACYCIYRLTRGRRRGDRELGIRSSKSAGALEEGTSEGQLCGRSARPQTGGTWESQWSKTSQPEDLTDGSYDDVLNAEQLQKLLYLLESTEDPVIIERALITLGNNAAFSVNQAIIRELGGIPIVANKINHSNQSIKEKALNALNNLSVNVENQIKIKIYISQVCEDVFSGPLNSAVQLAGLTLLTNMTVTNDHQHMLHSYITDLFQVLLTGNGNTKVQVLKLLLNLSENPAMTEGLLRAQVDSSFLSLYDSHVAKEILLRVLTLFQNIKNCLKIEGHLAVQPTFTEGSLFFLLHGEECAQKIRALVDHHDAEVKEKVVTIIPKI
UniProt Q96BY7: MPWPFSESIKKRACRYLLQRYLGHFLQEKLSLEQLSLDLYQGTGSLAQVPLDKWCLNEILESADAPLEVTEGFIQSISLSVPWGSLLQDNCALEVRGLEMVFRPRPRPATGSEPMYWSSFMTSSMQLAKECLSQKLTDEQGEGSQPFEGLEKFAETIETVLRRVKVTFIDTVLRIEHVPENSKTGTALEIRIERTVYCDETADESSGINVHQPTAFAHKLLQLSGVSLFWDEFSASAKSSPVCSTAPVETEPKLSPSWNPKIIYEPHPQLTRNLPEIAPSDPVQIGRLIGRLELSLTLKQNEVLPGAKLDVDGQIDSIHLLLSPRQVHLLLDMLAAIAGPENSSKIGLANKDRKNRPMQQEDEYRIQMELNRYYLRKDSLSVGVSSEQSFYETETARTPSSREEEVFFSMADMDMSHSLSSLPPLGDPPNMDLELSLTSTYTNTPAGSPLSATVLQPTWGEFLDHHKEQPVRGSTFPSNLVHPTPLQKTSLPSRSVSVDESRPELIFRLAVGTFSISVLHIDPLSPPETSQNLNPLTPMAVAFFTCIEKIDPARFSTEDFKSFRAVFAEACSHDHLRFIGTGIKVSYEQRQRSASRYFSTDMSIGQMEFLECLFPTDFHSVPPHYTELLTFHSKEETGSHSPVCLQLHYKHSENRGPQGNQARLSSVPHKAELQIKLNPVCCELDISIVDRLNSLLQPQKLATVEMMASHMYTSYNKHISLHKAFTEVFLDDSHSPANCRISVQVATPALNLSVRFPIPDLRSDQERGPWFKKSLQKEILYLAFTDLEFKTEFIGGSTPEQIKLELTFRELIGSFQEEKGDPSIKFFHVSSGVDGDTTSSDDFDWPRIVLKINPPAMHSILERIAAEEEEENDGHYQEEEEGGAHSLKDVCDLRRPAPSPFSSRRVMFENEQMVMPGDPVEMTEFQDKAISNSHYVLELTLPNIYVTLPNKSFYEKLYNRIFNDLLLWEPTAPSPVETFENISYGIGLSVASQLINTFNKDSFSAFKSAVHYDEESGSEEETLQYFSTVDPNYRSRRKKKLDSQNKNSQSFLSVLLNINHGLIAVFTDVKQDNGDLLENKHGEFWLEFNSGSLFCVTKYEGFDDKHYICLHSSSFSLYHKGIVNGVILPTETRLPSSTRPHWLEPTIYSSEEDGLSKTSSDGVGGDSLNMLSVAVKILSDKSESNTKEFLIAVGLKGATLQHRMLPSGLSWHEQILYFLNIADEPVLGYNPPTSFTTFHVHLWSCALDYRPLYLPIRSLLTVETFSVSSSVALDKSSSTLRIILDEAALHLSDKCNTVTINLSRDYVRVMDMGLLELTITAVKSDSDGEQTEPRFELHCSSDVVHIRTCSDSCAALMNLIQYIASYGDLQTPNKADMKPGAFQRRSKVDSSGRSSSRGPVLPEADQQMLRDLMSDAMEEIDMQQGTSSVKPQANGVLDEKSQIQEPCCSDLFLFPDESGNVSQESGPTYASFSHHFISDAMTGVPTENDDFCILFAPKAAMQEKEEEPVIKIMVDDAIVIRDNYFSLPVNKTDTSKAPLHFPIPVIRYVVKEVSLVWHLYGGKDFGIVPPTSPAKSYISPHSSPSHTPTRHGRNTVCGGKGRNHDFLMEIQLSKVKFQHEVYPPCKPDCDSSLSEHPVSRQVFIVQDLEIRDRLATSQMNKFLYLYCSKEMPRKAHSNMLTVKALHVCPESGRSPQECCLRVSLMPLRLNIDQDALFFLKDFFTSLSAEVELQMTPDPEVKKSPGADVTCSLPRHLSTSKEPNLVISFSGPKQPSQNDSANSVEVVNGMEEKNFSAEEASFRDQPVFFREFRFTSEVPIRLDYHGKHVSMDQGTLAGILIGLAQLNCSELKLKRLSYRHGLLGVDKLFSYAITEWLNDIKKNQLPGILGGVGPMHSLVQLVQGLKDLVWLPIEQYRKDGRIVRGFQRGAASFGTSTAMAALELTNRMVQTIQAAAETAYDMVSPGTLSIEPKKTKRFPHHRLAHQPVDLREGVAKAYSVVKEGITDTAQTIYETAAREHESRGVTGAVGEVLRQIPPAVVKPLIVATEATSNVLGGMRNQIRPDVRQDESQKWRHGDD

Tests used:
Assay in all cases: log2 fold change, soluble protein after heating vs DMSO (PISA); higher = thermal stabilisation; K562 cells, 10 uM, 30 min; active = over 0.2 and 3.5 SD of the protein, either way, in both replicates (recomputed)
[1] = compound: C1=CC=C(C=C1)[C@H](COC2=CC3=C(C=C2)NC(=O)N3)NC(=O)C4=CC=CN(C4=O)CC5=CC(=C(C=C5)F)F
Method in brief: (§1)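 Thermal stability values are relative to control samples and come from duplicates. They are expressed as log2 fold changes. For measurement, K562 cells (2×10^6 cells/mL) received 10 μM compound for 30 min, and aliquots were heated for 3 min over 48°C-58°C, pooled, and extracted at 4°C in PBS with 0.5% NP-40. Soluble protein, the supernatant after 21,000xg for 90 min, was quantified by TMTpro 16plex LC-MS/MS with equalised channel sums.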

[2] = compound: CC1=C(SC2=C1C(=N[C@H](C3=NN=C(N32)C)CC(=O)N)C4=CC=C(C=C4)Cl)C
Method in brief: as §1

[3] = compound: CC1=C2C(=CC=C1)N=C(N(C2=O)C3=CC=CC=C3C)CN4C=NC5=C(N=CN=C54)N
Method in brief: as §1

[4] = compound: Cc1sc2c(c1C)C(c1ccc(Cl)cc1)=N[C@@H](CC(=O)OC(C)(C)C)c1nnc(C)n1-2
Method in brief: as §1

[5] = compound: c1ccc([C@@H]2C[C@H]2NC2CCNCC2)cc1
Method in brief: as §1

Measured: log2 fold change

ATP1A4 (UniProt Q13733)
inactive: [1] -0.084 | [2] -0.142 | [3] 0.035 | [4] 0.036 | [5] 0.056

ASPSCR1 isoform 2 (UniProt Q9BZE9)
inactive: [1] -0.041 | [2] -0.019 | [3] 0.027 | [4] -0.027 | [5] 0.035

ATP6V0A2 (UniProt Q9Y487)
inactive: [1] 0.018 | [2] -0.044 | [3] -0.007 | [4] -0.059 | [5] -0.014

ARSA (UniProt P15289)
inactive: [1] 0.119 | [2] 0.051 | [3] -0.009 | [4] 0.015 | [5] -0.048

ATPAF2 (UniProt Q8N5M1)
inactive: [1] 0.016 | [2] 0.053 | [3] 0.03 | [4] -0.084 | [5] 0.012

ASS1 (UniProt P00966)
inactive: [1] -0.099 | [2] -0.036 | [3] 0.032 | [4] -0.141 | [5] -0.146

ATP6V1G1 (UniProt O75348)
inactive: [1] 0.018 | [2] 0.001 | [3] 0.071 | [4] 0.008 | [5] -0.063

ARMC10 (UniProt Q8N2F6)
inactive: [1] 0.035 | [2] -0.017 | [3] -0.006 | [4] 0.012 | [5] -0.009

Quoted at random: 2 records from the list, in no set order.
ARSA (UniProt P15289)
inactive: [1] 0.119 | [2] 0.051 | [3] -0.009 | [4] 0.015 | [5] -0.048

ATPAF2 (UniProt Q8N5M1)
inactive: [1] 0.016 | [2] 0.053 | [3] 0.03 | [4] -0.084 | [5] 0.012

(next part)

ATG2B (UniProt Q96BY7)
inactive: [1] -0.034 | [2] 0.035 | [3] 0.024 | [4] 0.027 | [5] 0.066
